The values below come from paper PMC10070696.

Assay [1] has as its target T1, cLUC-ICE1 (Arabidopsis thaliana) (UniProt Q9LSE2).
T1 sequence: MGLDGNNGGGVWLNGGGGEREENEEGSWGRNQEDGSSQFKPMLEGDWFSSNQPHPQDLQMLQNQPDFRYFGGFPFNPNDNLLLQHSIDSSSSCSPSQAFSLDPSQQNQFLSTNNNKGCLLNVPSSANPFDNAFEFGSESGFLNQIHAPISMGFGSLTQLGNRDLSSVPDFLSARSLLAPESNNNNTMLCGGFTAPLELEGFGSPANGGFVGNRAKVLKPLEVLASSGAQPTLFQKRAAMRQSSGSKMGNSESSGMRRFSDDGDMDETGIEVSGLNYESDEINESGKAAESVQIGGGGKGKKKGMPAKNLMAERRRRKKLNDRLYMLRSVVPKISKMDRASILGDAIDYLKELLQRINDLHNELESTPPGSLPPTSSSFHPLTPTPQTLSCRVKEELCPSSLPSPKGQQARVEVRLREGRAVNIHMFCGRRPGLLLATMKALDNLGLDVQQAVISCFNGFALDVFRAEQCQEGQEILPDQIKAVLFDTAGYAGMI
Briefly: split reporter; firefly luciferase complementation imaging (LCI): nLUC and cLUC fusions co-expressed in tobacco leaves at 22°C for about 48 h, 1 mM D-luciferin sprayed, low-light imaging.

For assay [2], the target named is T2, cCFP-ICE1 (Arabidopsis thaliana) (UniProt Q9LSE2).
T2 sequence: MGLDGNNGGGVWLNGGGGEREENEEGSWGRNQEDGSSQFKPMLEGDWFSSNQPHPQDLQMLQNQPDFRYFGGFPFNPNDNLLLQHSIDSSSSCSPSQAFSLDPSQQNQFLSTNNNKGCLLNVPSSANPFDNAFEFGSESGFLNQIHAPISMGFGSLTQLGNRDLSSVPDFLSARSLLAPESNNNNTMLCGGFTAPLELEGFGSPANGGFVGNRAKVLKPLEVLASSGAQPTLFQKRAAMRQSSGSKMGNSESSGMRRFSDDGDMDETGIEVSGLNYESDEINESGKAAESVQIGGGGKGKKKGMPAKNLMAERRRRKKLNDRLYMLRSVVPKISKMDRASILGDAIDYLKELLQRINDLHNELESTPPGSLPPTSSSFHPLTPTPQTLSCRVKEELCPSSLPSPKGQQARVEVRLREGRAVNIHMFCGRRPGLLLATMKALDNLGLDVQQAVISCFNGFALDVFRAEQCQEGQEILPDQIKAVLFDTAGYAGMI
The experiment in a line: split reporter; BiFC: nYFP and cCFP fusions co-expressed for about 48 h in tobacco (Nicotiana benthamiana) leaf epidermal cells, GFP signal by confocal microscopy.

The target of assay [3] is cCFP (C-terminal half of cyan fluorescent protein) alone. The assay is described as above.
Assay [4] addresses cLUC (C-terminal half of firefly luciferase) alone (firefly). Briefly: split reporter; firefly luciferase complementation imaging (LCI): nLUC and cLUC fusions co-expressed in tobacco leaves at 22°C for about 48 h, 1 mM D-luciferin sprayed, low-light imaging.

Results are given in words; binding and its absence hold for the method and conditions named. Binding seen in cells or lysates may run through a third protein. Where a sequence is shown, tags or fusion partners need not be part of it.

Regarding “nLUC (N-terminal half of firefly luciferase) alone (domain or fragment)”, the binding entry in assay [1] is listed as “no binding”.
In the case of “nYFP (N-terminal half of yellow fluorescent protein) alone (domain or fragment)”, the binding result in assay [2] is reported as “no binding”.

B1: nYFP-LFR (protein, UniProt Q9LS90 1-460)
chain: MQKRELGKSGGNSGGSSGPPAKRGRPFGSTSANSAAAAAAAAAADAMSPSALLGPSLLVHNSFVEQNNRRIVLALQSGLKSEVTWALNTLTLLSFKEKEDIRRDVMPLAKIAGLLDALLLIIDDWRDIALPKDLTRGTRVRTLGTNASVTGFGNEYDALASIQPPGSGIGSSAAEALGKKSTGKHQSSQWWMEEDGLFNLDDEGRSEKQMCAIAASNVIRNFSFMPDNEVVMAQHRHCLETVFQCIHDHMTEDEELVTNSLETIVNLAHLMDLRIFSSLKQSYININEKKAVQAVVGILNSSVKAWNCAAAELLGRLIINPDNEPFISPLIPQIHKRLIDLLSIQAVDAQAAAVGALYNLVEVNMDCRLKLASERWAVDRLLKVIKTPHPVPEVCRKAAMILENLVSEPQNRGLLLAYENAFAELLFQEGKYSDSFARILYELTARSNSRVASARGIWGM
As to B1, the binding result in assay [3] is on record as “no binding”.

B2: LFR-nLUC (protein, UniProt Q9LS90 1-460)
chain: MQKRELGKSGGNSGGSSGPPAKRGRPFGSTSANSAAAAAAAAAADAMSPSALLGPSLLVHNSFVEQNNRRIVLALQSGLKSEVTWALNTLTLLSFKEKEDIRRDVMPLAKIAGLLDALLLIIDDWRDIALPKDLTRGTRVRTLGTNASVTGFGNEYDALASIQPPGSGIGSSAAEALGKKSTGKHQSSQWWMEEDGLFNLDDEGRSEKQMCAIAASNVIRNFSFMPDNEVVMAQHRHCLETVFQCIHDHMTEDEELVTNSLETIVNLAHLMDLRIFSSLKQSYININEKKAVQAVVGILNSSVKAWNCAAAELLGRLIINPDNEPFISPLIPQIHKRLIDLLSIQAVDAQAAAVGALYNLVEVNMDCRLKLASERWAVDRLLKVIKTPHPVPEVCRKAAMILENLVSEPQNRGLLLAYENAFAELLFQEGKYSDSFARILYELTARSNSRVASARGIWGM
In the case of B2, the binding result in assay [4] is “no binding”.
